A word on the AC50: it is the concentration giving half of the maximal activity seen.

Some of the results follow. Shown are side measurements of this screen, not its main read-out; they come without a call. The list favours compounds with an active or inconclusive main result. Words in brackets tell the shape of the fitted curve; partial curves, single points and poor fits give uncertain potencies.

This experiment in a line: Cell signaling CRE-BLA (Fsk stim). The conditions noted are these: CHO CRE-bla reporter (cAMP response element driving beta-lactamase), forskolin EC10, beta-lactamase ratio; measured here: 460 nm blue channel. The procedure, abridged:
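The 460nm/530nm emission ratio after CCF4 loading defined %Activity, from which AC50 values were obtained. CRE-bla CHO cells received compound dilution series together with an EC10 level of NKH 477 for 3 hours at 37 degrees Celsius.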
Turning to `CC(C)(C)[Si](C)(C)c1c2c(nc3ccc(OCc4ccccc4)cc13)-c1cccc(=O)n1C2`, the AC50 is 12.6 µM [rising, partial curve].

On to `Cc1ccc2cc3cc(C(=O)NCc4ccc5c(c4)OCO5)oc3nc2c1`, for which the AC50 was 0.00316 µM [falling, full curve, poor fit]. For the molecule `CCOC(=O)CNC(=O)c1cn(CC)c(=O)c2cc(OC)c(OC)cc12`, the AC50 is 6.31 µM [rising, partial curve].

As to `COCCn1c(=O)c(-c2ccc(F)cc2)nc2cncnc21`, the AC50 was 15.8 µM [rising, partial curve]. In the case of `CCOc1ccc(NC(=O)c2nnn(CC(=O)Nc3ccccc3OC)c2N)cc1`, the AC50 is 0.794 µM [falling, partial curve, poor fit]. For the molecule `O=C(CSc1nc(Nc2ccccc2)nc(N2CCOCC2)n1)N1CCCC1`, the AC50 is 15.8 µM [rising, single point]. With `CSC1=C(C#N)C(c2ccc(Cl)cc2)C2=C(CC(C)(C)CC2=O)N1` (configuration not stated), the AC50 was 0.631 µM [rising, partial curve]. As for `Cn1c(=O)cc(SCC(=O)NCc2cccnc2)c2ccccc21`, the AC50 was 10 µM [rising, single point].

Consider `CCN1CCN(C(CNC(=O)c2ccc3c(c2)OCO3)c2cccnc2)CC1` (configuration not stated), for which the AC50 was 7.94 µM [rising, partial curve]. Under `Cc1cc2cc(CN(CCCO)S(=O)(=O)c3cccc4nsnc34)c(=O)[nH]c2cc1C` stands 25.1 µM [rising, single point]; under `CN(C)CCSc1nc(N)c2c3c(sc2n1)COC(C)(C)C3`, 12.6 µM [rising, partial curve]; under `COc1cccc(C(=O)Nc2c3c(nn2-c2ccccc2C)CS(=O)C3)c1OC` (configuration not stated), 12.6 µM [rising, single point]. Take `CN(C)C(=O)c1ccc(-c2nc(N(C)C)c3ccccc3n2)cc1`: the AC50 was 7.94 µM [rising, partial curve]. Regarding `CSc1nc2c(c(=O)n1C)SC(C)C2` (configuration not stated), the AC50 was 12.6 µM [rising, single point].

Take `Cn1cc(-c2nc3cnc(Oc4ccccc4)nc3n(Cc3cccs3)c2=O)c2ccccc21`: the AC50 was 1 µM [rising, partial curve]. Then `Cc1cc(NC(=O)COc2ccc3oc4ccccc4c3c2)no1`, with 5.01 µM [falling, single point]. For the molecule `CCOC(=O)C(NC(=O)CC)(Nc1sc2c(c1C(=O)OC)CCN(C)C2)C(F)(F)F` (configuration not stated), the AC50 is 0.02 µM [rising, full curve]. Take `Cc1cc2nc(-c3ccco3)cc(C(F)(F)F)n2n1`: the AC50 is 12.6 µM [rising, partial curve]. Turning to `COc1cc(-c2nnc(CSc3nc4ccccc4s3)o2)cc(OC)c1OC`, the AC50 was 2 µM [rising, full curve]. As to `Nc1c(C(=O)NCCN2CCOCC2)c2nc3ccccc3nc2n1CCc1ccccc1`, the AC50 is 12.6 µM [rising, partial curve]. For the molecule `COc1cccc(C2=NOC(C(=O)Nc3ccc(OC)c(OC)c3)C2)c1` (configuration not stated), the AC50 is 12.6 µM [rising, partial curve]. As for `O=C(CSc1ccc(-c2ccc(F)cc2)nn1)N1CCCCC1`, the AC50 was 0.398 µM [falling, full curve, poor fit].

Turning to `CN(C)CCCc1c2ccccc2nc2ccc(Cl)cc12`, the AC50 was 3.98 µM [rising, single point]. Turning to `Cc1ccc(C(=O)CSc2nc3ccccc3c(=O)n2N)o1`, the AC50 is 6.31 µM [rising, partial curve].

For `COc1ncc2nc(C)c(=O)n(C[C@H]3CCCO3)c2n1`, the AC50 is 12.6 µM [rising, partial curve]. Then `CCC(=O)n1nc(-c2cccnc2)nc1NCc1ccc(OC)cc1`, with 0.00501 µM [falling, full curve, poor fit]; and `Cc1c(OC(=O)CNC(=O)OC(C)(C)C)ccc2c3c(c(=O)oc12)CCC3`, with 12.6 µM [rising, single point]. On to `Cc1cc2c(c(C)nn2-c2ccccc2)c(=O)o1`, for which the AC50 is 10 µM [rising, partial curve]. Regarding `COCCn1c(=O)c(-c2ccc(Cl)cc2)nc2cnc(N3CCNCC3)nc21`, the concentration at half-maximal activity (AC50) is 2 µM [rising, full curve]. Regarding `COc1ccc(S(=O)(=O)N(CCCN2CCCC2=O)Cc2cc3cc(C)c(C)cc3[nH]c2=O)cc1`, the AC50 was 10 µM [rising, partial curve]. On to `O=C(Nc1ccc2c(c1)OCO2)C1CCN(C(=O)CSc2ncnc3ccccc23)CC1`, for which the AC50 is 1.58 µM [falling, full curve]. Take `COC(=O)c1cc2c(C)nn(-c3ccccc3)c2s1`: the AC50 is 12.6 µM [rising, partial curve]. Consider `O=C(CCS(=O)(=O)Cc1ccccc1)Nc1nc2c(s1)CCCC2`, for which the AC50 was 25.1 µM [rising, single point]. On to `CC1=CC(C)(C)Nc2ccc(OC(=O)c3ccco3)cc21`, for which the AC50 was 25.1 µM [rising, single point]. For `CCOC(=O)c1sc(C)nc1C1CCN(C(=O)OCC)CC1`, the AC50 is 10 µM [falling, partial curve]. Then `O=C(NCC(c1cccnc1)N1CCN(c2ccc(F)cc2)CC1)c1ccccc1` (configuration not stated), with 2.51 µM [rising, partial curve].

On to `CC1CN(S(=O)(=O)c2cccc(-c3cn4ccccc4n3)c2)CC(C)O1` (configuration not stated), for which the AC50 was 15.8 µM [rising, single point]. Under `NC(=O)c1c(NC(=O)COC(=O)CSc2nnc(-c3ccc(Cl)cc3)o2)sc2c1CCC2` stands 0.00398 µM [falling, full curve, poor fit].

With `O=C(c1ccc(N2CCCC2=O)cc1)N1CCCCCC1`, the AC50 was 0.0631 µM [rising, full curve, poor fit]. As to `Cc1ccc2c(C(=O)CN3CCN(C4CCCCC4)CC3)c(C)[nH]c2c1`, the AC50 is 6.31 µM [falling, partial curve, poor fit]. Consider `CC(=O)Nc1cc(-c2nn(CC(=O)N3CCCCC3)c(=O)c3ccccc23)ccc1N1CCOCC1`, for which the AC50 is 15.8 µM [rising, partial curve].

As for `Cc1cc(Nc2cccc(F)c2)n2nc(C)nc2n1`, the AC50 is 12.6 µM [rising, partial curve].

On to `Cc1cccc(N2CCN(C(=O)C3CCCN(S(=O)(=O)c4cnc[nH]4)C3)CC2C)c1` (configuration not stated), for which the AC50 was 0.631 µM [falling, full curve, poor fit]. Under `CC(C)n1c2ccccc2c2nnc(SCC(=O)OCN3C(=O)c4ccccc4C3=O)nc21` stands 0.501 µM [rising, full curve]; under `NC(=O)c1cc(-c2ccccc2)nc(N2CCCCCC2)n1`, 20 µM [rising, partial curve]. With `COc1ccc(OC)c(-c2nnc(NC(=O)C(C)Sc3nncn3C)s2)c1` (configuration not stated), the AC50 is 10 µM [rising, partial curve].

Turning to `CCC(Sc1nnc(-c2ccc(C)c(Cl)c2)n1CC)C(=O)Nc1nccs1` (configuration not stated), the AC50 is 0.0398 µM [rising, full curve, poor fit].

Consider `Cc1cnc(C(=O)OCC(=O)Nc2oc(-c3ccccc3)c(-c3ccccc3)c2C#N)cn1`, for which the AC50 was 12.6 µM [rising, partial curve]. Consider `COC(=O)N1CCC2(CC1)CN(c1ccccc1)C2`, for which the AC50 is 3.98 µM [rising, partial curve]. Turning to `COC(=O)C1=C(CSc2nc3ccccc3o2)NC(=O)NC1c1cc(C)ccc1C` (configuration not stated), the AC50 was 1.58 µM [rising, partial curve].

As for `CC(=O)C(C(C)=O)c1c(Cl)c(O)c(O)c2c(C(=O)c3ccccc3)coc12`, the AC50 is 25.1 µM [falling, single point]. For the molecule `CC(=O)Cc1nsc(NC(=O)c2ccc(-c3cc(C(F)(F)F)ccc3Cl)o2)n1`, the AC50 was 5.01 µM [rising, partial curve]. Regarding `COCCn1c(=O)c(-c2ccc(F)c(F)c2)nc2cncnc21`, the AC50 is 20 µM [rising, single point].

For the molecule `Cn1nc(-c2ccc(Cl)cc2)c2cc(C(=O)NCCN3CCOCC3)sc21`, the AC50 is 6.31 µM [rising, partial curve]. As to `CC(=O)c1ccc(N2CCCC2)c(F)c1`, the AC50 is 12.6 µM [rising, single point].

With `O=S(=O)(NCCCCCCc1ccccc1)c1cccc2c(Cl)cccc12`, the AC50 was 31.6 µM [falling, single point]. Consider `O=C(NCCN1CCOCC1)c1cc(-c2ccc(Cl)cc2)on1`, for which the AC50 was 0.316 µM [falling, partial curve, poor fit]. As for `CC1CC(C)CN(CCCNC(=O)Cc2c(C(=O)O)[nH]c3ccccc23)C1` (configuration not stated), the AC50 is 20 µM [falling, partial curve]. With `N#Cc1nn(-c2ccccc2)nc1N1CCCCC1`, the concentration at half-maximal activity (AC50) is 0.0631 µM [falling, full curve]. As to `COC(=O)CSC1=NS(=O)(=O)c2ccccc21`, the AC50 is 10 µM [falling, partial curve]. Take `Cc1ccc(C)c2[nH]c(=O)c(CCNC(=O)c3cc4ccccc4o3)cc12`: the AC50 is 20 µM [falling, single point].

As to `Cc1nc2nc[nH]n2c(=O)c1NC(=O)CCc1ccccc1`, the AC50 is 0.0631 µM [falling, partial curve].

With `O=C(CN1CCc2ccccc21)Nc1ccc2c(c1)OCO2`, the AC50 was 10 µM [falling, single point]. Then `CN(C)c1oc(-c2ccccc2)nc1C#N`, with 0.0631 µM [falling, full curve, poor fit]; and `Cc1ccc2c(c1)c1c(n2CC(O)Cn2c(C)nc3ccccc32)/C(=N\O)CCC1` (configuration not stated), with 12.6 µM [falling, single point]; and `CCOc1ccccc1Nc1cc(C)nc2nc(C)nn12`, with 12.6 µM [rising, partial curve]. As for `CC(=O)Nc1ccc(-c2nc3c(C)cccc3[nH]2)cc1`, the AC50 was 31.6 µM [falling, single point].

The values above are taken from PubChem BioAssay AID662 (National Center for Advancing Translational Sciences (NCATS), 2007).
